Assay results taken from publication PMC5732150.
Results are given in words; binding and its absence hold for the method and conditions named. In cells and extracts the contact can be indirect. Some binding calls cover weakened binding; strength is not graded here.

T1: CD44 (mouse (endogenous in splenic B lymphocytes)) (UniProt P15379)
T1 sequence: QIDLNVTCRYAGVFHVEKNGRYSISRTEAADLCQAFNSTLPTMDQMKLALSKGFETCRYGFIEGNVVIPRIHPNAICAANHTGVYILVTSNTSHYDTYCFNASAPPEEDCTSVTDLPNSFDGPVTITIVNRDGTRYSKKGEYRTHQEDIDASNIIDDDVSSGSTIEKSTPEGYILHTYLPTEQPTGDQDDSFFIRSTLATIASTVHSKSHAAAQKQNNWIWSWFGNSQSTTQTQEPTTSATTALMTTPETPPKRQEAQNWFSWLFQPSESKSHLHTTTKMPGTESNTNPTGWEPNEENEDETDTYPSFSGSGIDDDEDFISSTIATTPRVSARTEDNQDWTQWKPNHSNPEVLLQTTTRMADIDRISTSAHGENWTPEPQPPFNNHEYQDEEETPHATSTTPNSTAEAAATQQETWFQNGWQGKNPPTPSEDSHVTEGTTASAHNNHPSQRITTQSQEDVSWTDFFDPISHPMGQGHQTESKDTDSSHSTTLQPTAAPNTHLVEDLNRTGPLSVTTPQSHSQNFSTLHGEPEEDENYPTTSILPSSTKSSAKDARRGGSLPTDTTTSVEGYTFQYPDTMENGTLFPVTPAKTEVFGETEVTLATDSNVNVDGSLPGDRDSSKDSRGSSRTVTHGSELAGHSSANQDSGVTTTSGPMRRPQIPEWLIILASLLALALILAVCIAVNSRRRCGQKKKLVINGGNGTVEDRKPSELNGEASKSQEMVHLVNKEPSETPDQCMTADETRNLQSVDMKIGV

T2: Myosin 1g (mouse (endogenous in splenic B lymphocytes)) (UniProt Q5SUA5)
T2 sequence: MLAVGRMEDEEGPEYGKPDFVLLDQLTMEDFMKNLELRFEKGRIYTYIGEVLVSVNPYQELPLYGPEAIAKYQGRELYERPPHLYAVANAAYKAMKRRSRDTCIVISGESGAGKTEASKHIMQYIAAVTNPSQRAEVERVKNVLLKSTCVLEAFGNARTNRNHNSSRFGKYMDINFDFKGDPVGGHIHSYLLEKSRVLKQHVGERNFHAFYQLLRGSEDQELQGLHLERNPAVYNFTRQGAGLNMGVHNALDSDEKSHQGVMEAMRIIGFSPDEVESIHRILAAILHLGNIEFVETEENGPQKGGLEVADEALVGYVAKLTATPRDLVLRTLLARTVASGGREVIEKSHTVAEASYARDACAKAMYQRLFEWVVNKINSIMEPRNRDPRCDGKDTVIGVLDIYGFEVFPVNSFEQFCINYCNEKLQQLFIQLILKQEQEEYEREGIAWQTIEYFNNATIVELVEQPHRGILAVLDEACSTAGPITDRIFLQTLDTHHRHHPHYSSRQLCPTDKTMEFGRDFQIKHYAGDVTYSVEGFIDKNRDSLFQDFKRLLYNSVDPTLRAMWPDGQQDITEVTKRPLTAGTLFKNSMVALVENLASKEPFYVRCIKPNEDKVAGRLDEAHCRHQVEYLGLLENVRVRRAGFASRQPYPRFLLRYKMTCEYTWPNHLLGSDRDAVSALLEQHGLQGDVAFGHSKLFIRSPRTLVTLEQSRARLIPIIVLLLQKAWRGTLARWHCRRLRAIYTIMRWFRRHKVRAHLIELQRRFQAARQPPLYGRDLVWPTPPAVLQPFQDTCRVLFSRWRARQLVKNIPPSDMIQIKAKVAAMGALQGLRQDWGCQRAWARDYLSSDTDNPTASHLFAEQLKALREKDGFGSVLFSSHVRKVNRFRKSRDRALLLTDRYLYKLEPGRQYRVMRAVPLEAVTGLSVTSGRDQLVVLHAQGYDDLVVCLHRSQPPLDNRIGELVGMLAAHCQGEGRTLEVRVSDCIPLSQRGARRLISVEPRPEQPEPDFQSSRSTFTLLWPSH


Columns and labels:
[1] = target: T1, CD44 (mouse (endogenous in splenic B lymphocytes)); assay: co-IP; Lysates (RIPA buffer, 1% Triton X-100) of resting, LPS plus IL-4 activated, HA-stimulated or CD44-capped mouse B lymphocytes; precipitated with α-Myo1g or NIM-R8 (α-CD44), 4 h at 4°C, protein G-agarose; Western blot; CD44 precipitates compared between WT and Myo1g-deficient cells
[2] = target: T2, Myosin 1g (mouse (endogenous in splenic B lymphocytes)); assay: as above

| Binder | binding [1] | binding [2] |
| --- | --- | --- |
| Myosin 1g (protein, UniProt Q5SUA5 1-1024) MLAVGRMEDEEGPEYGKPDFVLLDQLTMEDFMKNLELRFEKGRIYTYIGEVLVSVNPYQELPLYGPEAIAKYQGRELYERPPHLYAVANAAYKAMKRRSRDTCIVISGESGAGKTEASKHIMQYIAAVTNPSQRAEVERVKNVLLKSTCVLEAFGNARTNRNHNSSRFGKYMDINFDFKGDPVGGHIHSYLLEKSRVLKQHVGERNFHAFYQLLRGSEDQELQGLHLERNPAVYNFTRQGAGLNMGVHNALDSDEKSHQGVMEAMRIIGFSPDEVESIHRILAAILHLGNIEFVETEENGPQKGGLEVADEALVGYVAKLTATPRDLVLRTLLARTVASGGREVIEKSHTVAEASYARDACAKAMYQRLFEWVVNKINSIMEPRNRDPRCDGKDTVIGVLDIYGFEVFPVNSFEQFCINYCNEKLQQLFIQLILKQEQEEYEREGIAWQTIEYFNNATIVELVEQPHRGILAVLDEACSTAGPITDRIFLQTLDTHHRHHPHYSSRQLCPTDKTMEFGRDFQIKHYAGDVTYSVEGFIDKNRDSLFQDFKRLLYNSVDPTLRAMWPDGQQDITEVTKRPLTAGTLFKNSMVALVENLASKEPFYVRCIKPNEDKVAGRLDEAHCRHQVEYLGLLENVRVRRAGFASRQPYPRFLLRYKMTCEYTWPNHLLGSDRDAVSALLEQHGLQGDVAFGHSKLFIRSPRTLVTLEQSRARLIPIIVLLLQKAWRGTLARWHCRRLRAIYTIMRWFRRHKVRAHLIELQRRFQAARQPPLYGRDLVWPTPPAVLQPFQDTCRVLFSRWRARQLVKNIPPSDMIQIKAKVAAMGALQGLRQDWGCQRAWARDYLSSDTDNPTASHLFAEQLKALREKDGFGSVLFSSHVRKVNRFRKSRDRALLLTDRYLYKLEPGRQYRVMRAVPLEAVTGLSVTSGRDQLVVLHAQGYDDLVVCLHRSQPPLDNRIGELVGMLAAHCQGEGRTLEVRVSDCIPLSQRGARRLISVEPRPEQPEPDFQSSRSTFTLLWPSH | binds | – |
| CD44 (receptor, UniProt P15379 23-778) QIDLNVTCRYAGVFHVEKNGRYSISRTEAADLCQAFNSTLPTMDQMKLALSKGFETCRYGFIEGNVVIPRIHPNAICAANHTGVYILVTSNTSHYDTYCFNASAPPEEDCTSVTDLPNSFDGPVTITIVNRDGTRYSKKGEYRTHQEDIDASNIIDDDVSSGSTIEKSTPEGYILHTYLPTEQPTGDQDDSFFIRSTLATIASTVHSKSHAAAQKQNNWIWSWFGNSQSTTQTQEPTTSATTALMTTPETPPKRQEAQNWFSWLFQPSESKSHLHTTTKMPGTESNTNPTGWEPNEENEDETDTYPSFSGSGIDDDEDFISSTIATTPRVSARTEDNQDWTQWKPNHSNPEVLLQTTTRMADIDRISTSAHGENWTPEPQPPFNNHEYQDEEETPHATSTTPNSTAEAAATQQETWFQNGWQGKNPPTPSEDSHVTEGTTASAHNNHPSQRITTQSQEDVSWTDFFDPISHPMGQGHQTESKDTDSSHSTTLQPTAAPNTHLVEDLNRTGPLSVTTPQSHSQNFSTLHGEPEEDENYPTTSILPSSTKSSAKDARRGGSLPTDTTTSVEGYTFQYPDTMENGTLFPVTPAKTEVFGETEVTLATDSNVNVDGSLPGDRDSSKDSRGSSRTVTHGSELAGHSSANQDSGVTTTSGPMRRPQIPEWLIILASLLALALILAVCIAVNSRRRCGQKKKLVINGGNGTVEDRKPSELNGEASKSQEMVHLVNKEPSETPDQCMTADETRNLQSVDMKIGV | – | binds |
